Laboratory results published in publication PMC8201255, “A Combined Experimental and Theoretical Study of Nitrofuran Antibiotics: Crystal Structures, DFT Computations, Sublimation and Solution Thermodynamics” (Molecules, 2021).
Like-named read-outs stand apart in the source and are kept apart here.

Experiments:
[1] = Method: All the solubility experiments were carried out using the analytical isothermal shake-flask method. […] In brief, an excess amount of API was added to triplicate Pyrex glass tubes containing the respective dissolution media. […] The concentrations of the dissolved APIs were measured spectrophotometrically using a Cary 50 UV-vis spectrophotometer (Varian, Australia) with an accuracy of 2–4%.
Conversion of molarity to mole fraction concentration scale was produced using Equation (10):(10) X2=M2S2/S2(M2−M1)+1000ρ where S2 is molarity of API (mol·L^−1), M1 and M2 are the molar masses of solvent and solute, respectively, and ρ (g·cm^−3) is the density of the pure solvents. The mole fraction solubilities for buffer solutions were calculated taking into account the buffer compositions. Densities of buffer solutions (pH 2.0 and 7.4) were measured and published early.
(§1) The results are stated as the average of at least three replicated experiments.

[2] = stirring the suspension for 72 h
Description: as §1

[3] = remark: listed apart in the source
Method: Details of the technique are given in the literature. In brief: a flow of the inert gas (N2) through the tube transported the saturated vapor of the sample under investigation at a constant temperature and flow rate. The sample vapor is completely condensed at some point downstream. The sample vapor pressure at this temperature was calculated from the sublimated sample amount and the volume of the inert gas used. The mass of sublimated substance was determined using a spectrophotometer method by means of spectrophotometer Cary-50 (Varian, Australia).
The equipment was calibrated with benzoic acid, as specified in earlier work of our research group.
Absolute vapor pressures for compounds are usually approximated by the Clarke–Glew equation [38].
The value of the sublimation enthalpy is calculated by the Clausius–Clayperon equation:(7) ΔcrgHm0(T)=−R⋅(∂(lnp)/∂(1/T))
The sublimation entropy at a given temperature T is calculated by the following relation:(8) ΔcrgSm0(T)=(ΔcrgHm0(T)−ΔcrgGm0(T))/T with ΔcrgGm0(T)=−RTln(p/p0) , where p0 is the standard pressure (1 × 10^5 Pa).
For experimental reasons, the sublimation data are obtained at high temperatures. However, in comparison with the effusion methods, the temperatures are much lower, which makes extrapolation to room conditions easier.
Van der Waals molecular volumes ( V^vdw ) were estimated by the program GEPOL [50] using atom radiuses proposed by Kitaigorodskii. The free molecular volume in the crystal lattice was calculated on the basis of the single crystal X-ray diffraction data:(14) V^free=V^mol−V^vdw where V^mol is the molecular volume in crystal lattice, which is estimated by the equation:(15) V^mol=V^cell/Z where V^cell is the unit cell volume and Z is the number of molecules in the unit cell.

[4] = heating 10 K·min^−1
[5] = for TΔSsol0 / ΔGsol0 / ΔHsol0 / ΔSsol0: dissolution; for ςHsolv: relative fraction of solvation enthalpy; for ςTSsolv: relative fraction of solvation entropy; for TΔSsolv0 / ΔGsolv0 / ΔHsolv0 / ΔSsolv0: solvation

X2 (solubility) ([1]; pH 2): 3.35·10^6 mol.frac. | X2 (solubility) ([1]; pH 7.4): 3.31·10^6 mol.frac. | hydrate formation in suspension [2]: not found to form stable hydrates | 298.15⋅ΔcrgSm0(298.15K) ([3]; 298.15 K): 12.9 kcal/mol | ΔcrgGm0(298.15), sublimation Gibbs energy ([3]; 298.15 K): 17.7 kcal/mol | ΔcrgHm0(298.15K), sublimation enthalpy ([3]; 298.15 K): 30.57 ± 0.263 kcal/mol | ΔcrgSm0(298.15K), sublimation entropy ([3]; 298.15 K): 180.6 ± 4.6 J·mol^−1·K^−1 | ΔcrgHm0(T), sublimation enthalpy ([3]; at experimental temperature T): 29.16 ± 0.263 kcal/mol | ςH ([3]; enthalpy term of sublimation, 298.15 K): 70.4% | ςTS ([3]; entropy term of sublimation, 298.15 K): 29.6% | p(298.15K), saturated vapor pressure ([3]; extrapolated to 298.15 K): 1.12·10^−8 Pa | β = V^free/V^vdw ([3]; free volume in the crystal lattice over van der Waals volume): 37.5% | TΔSsol0 ([5]; 1-octanol, 298.15 K): 5.19 kcal/mol | ΔGsol0 ([5]; 1-octanol, 298.15 K): 6.62 kcal/mol | ΔHsol0 ([5]; 1-octanol, 298.15 K): 11.8 ± 1.05 kcal/mol | ΔSsol0 ([5]; 1-octanol, 298.15 K): 72.6 ± 5.2 J·K^−1·mol^−1 | TΔSsol0 ([5]; buffer pH 2.0, 298.15 K): 2.51 kcal/mol | ΔGsol0 ([5]; buffer pH 2.0, 298.15 K): 7.48 kcal/mol | ΔHsol0 ([5]; buffer pH 2.0, 298.15 K): 9.99 ± 0.765 kcal/mol | ΔSsol0 ([5]; buffer pH 2.0, 298.15 K): 35.4 ± 4.0 J·K^−1·mol^−1 | TΔSsol0 ([5]; buffer pH 7.4, 298.15 K): 2.75 kcal/mol | ΔGsol0 ([5]; buffer pH 7.4, 298.15 K): 7.48 kcal/mol | ΔHsol0 ([5]; buffer pH 7.4, 298.15 K): 10.2 ± 0.669 kcal/mol | ΔSsol0 ([5]; buffer pH 7.4, 298.15 K): 38.4 ± 4.0 J·K^−1·mol^−1 | ςHsolv ([5]; 1-octanol, 298.15 K): 70.9% | ςHsolv ([5]; buffer pH 2.0, 298.15 K): 66.5% | ςHsolv ([5]; buffer pH 7.4, 298.15 K): 66.7% | ςTSsolv ([5]; 1-octanol, 298.15 K): 29.1% | ςTSsolv ([5]; buffer pH 2.0, 298.15 K): 33.5% | ςTSsolv ([5]; buffer pH 7.4, 298.15 K): 33.3% | TΔSsolv0 ([5]; 1-octanol, 298.15 K): -7.7 kcal/mol | ΔGsolv0 ([5]; 1-octanol, 298.15 K): -11.1 kcal/mol | ΔHsolv0 ([5]; 1-octanol, 298.15 K): -18.8 kcal/mol | ΔSsolv0 ([5]; 1-octanol, 298.15 K): −108.0 J·K^−1·mol^−1 | TΔSsolv0 ([5]; buffer pH 2.0, 298.15 K): -10.3 kcal/mol | ΔGsolv0 ([5]; buffer pH 2.0, 298.15 K): -10.2 kcal/mol | ΔHsolv0 ([5]; buffer pH 2.0, 298.15 K): -20.6 kcal/mol | ΔSsolv0 ([5]; buffer pH 2.0, 298.15 K): −145.2 J·K^−1·mol^−1 | TΔSsolv0 ([5]; buffer pH 7.4, 298.15 K): -10.1 kcal/mol | ΔGsolv0 ([5]; buffer pH 7.4, 298.15 K): -10.2 kcal/mol | ΔHsolv0 ([5]; buffer pH 7.4, 298.15 K): -20.3 kcal/mol | ΔSsolv0 ([5]; buffer pH 7.4, 298.15 K): −142.2 J·K^−1·mol^−1
Compound: O=C1OCCN1/N=C/c1ccc([N+](=O)[O-])o1 [FZL, furazolidone]
thermal stability (DSC/TG curves) [4]: stable up to the start of the sample melting
